# In the M2OR odorant receptor database:
# Sequences of proteins named here, by UniProt entry; tags and fusion partners are left off. A line that says so, or that is headed by a name, gives the form on record, which may keep a tag or linker.
# UniProt A2ASV2, as listed by the source: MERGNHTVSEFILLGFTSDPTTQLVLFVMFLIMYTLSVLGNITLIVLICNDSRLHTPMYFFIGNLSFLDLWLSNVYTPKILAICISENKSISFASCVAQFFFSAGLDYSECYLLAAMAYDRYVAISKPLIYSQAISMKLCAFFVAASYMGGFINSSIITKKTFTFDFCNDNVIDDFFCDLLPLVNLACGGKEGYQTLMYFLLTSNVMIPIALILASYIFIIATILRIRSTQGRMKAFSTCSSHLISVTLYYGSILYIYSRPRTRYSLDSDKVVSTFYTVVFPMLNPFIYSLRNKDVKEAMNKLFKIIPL
# UniProt A2AVA9, as listed by the source: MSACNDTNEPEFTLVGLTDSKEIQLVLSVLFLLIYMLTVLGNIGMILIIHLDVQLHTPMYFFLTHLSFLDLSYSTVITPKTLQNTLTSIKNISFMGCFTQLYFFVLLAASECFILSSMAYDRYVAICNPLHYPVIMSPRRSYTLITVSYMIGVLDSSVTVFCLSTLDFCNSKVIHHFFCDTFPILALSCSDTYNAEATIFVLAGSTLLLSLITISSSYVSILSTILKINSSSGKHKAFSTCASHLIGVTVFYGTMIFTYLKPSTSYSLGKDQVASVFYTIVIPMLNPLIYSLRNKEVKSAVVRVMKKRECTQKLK
# UniProt A2AVC3, as listed by the source: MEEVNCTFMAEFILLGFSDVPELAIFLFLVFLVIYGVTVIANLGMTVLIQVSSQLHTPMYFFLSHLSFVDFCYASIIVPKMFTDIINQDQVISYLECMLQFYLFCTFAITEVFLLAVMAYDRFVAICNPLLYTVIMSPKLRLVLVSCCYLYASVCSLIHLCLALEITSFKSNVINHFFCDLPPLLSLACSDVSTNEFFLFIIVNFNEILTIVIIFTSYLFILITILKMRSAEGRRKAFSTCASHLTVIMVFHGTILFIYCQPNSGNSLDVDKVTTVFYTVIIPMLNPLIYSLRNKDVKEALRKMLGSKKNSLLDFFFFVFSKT
# Only a part is listed here, and it is no random draw. Calls are pooled over several reports, among them a noisy single-well screen.
# Legend:
# Conditions in all cases: stereoisomer not certain
# UniProt A2ATE5 = target: T1, UniProt A2ATE5
# T1 sequence (whole entry): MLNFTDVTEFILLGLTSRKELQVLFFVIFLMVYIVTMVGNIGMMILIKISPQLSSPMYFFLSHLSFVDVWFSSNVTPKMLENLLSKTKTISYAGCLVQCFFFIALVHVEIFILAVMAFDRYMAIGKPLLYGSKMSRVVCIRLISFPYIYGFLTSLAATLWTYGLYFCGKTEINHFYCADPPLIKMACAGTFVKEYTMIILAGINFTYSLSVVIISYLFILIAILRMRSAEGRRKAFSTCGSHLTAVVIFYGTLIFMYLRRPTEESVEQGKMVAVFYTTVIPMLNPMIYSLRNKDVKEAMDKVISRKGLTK
# Procedure, shortened: (§1)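 Transient luciferase assays in mammalian cell lines were common, though methods varied by source. The values come from published papers and their supplementary material, with extra details from the original authors when needed. Responsive refers to a measured signal the original authors judged statistically different from baseline, and non-responsive (inactive) to the remainder.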
# UniProt A2AVB0 = target: T2, UniProt A2AVB0
# T2 sequence (whole entry): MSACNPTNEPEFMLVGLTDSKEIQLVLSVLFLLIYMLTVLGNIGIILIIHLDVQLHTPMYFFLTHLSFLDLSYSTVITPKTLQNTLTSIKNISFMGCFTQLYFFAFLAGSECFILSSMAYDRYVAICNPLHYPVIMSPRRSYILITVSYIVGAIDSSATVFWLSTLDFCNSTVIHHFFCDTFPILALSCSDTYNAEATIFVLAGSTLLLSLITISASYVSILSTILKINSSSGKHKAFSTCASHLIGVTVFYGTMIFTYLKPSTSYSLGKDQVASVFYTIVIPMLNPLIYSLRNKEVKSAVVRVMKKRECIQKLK
# Procedure, shortened: as §1
# UniProt A2AVB5 = target: T3, UniProt A2AVB5
# T3 sequence (whole entry): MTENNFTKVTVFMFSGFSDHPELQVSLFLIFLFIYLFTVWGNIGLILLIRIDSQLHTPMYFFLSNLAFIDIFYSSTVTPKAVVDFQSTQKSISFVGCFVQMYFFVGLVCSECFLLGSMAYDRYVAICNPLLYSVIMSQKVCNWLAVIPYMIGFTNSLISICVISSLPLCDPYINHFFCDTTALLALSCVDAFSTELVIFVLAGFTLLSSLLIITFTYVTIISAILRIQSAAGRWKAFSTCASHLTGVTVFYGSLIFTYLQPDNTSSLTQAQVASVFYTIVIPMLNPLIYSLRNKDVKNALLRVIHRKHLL
# Procedure, shortened: as §1
# UniProt B2RVX8 = target: T4, UniProt B2RVX8
# T4 sequence (whole entry): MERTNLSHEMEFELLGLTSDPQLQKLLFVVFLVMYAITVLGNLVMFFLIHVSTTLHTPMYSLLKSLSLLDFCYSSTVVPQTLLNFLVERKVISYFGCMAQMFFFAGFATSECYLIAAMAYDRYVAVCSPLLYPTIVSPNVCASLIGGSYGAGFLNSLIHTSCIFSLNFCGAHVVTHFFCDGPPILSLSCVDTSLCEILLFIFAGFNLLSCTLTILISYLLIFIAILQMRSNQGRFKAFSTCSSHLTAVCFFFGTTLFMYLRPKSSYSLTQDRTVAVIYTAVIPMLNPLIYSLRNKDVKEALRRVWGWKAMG
# Procedure, shortened: as §1
# UniProt A2ASV2 = target: UniProt A2ASV2
# Procedure, shortened: as §1
# UniProt A2AVA9 = target: UniProt A2AVA9
# Procedure, shortened: as §1
# UniProt A2AVC3 = target: UniProt A2AVC3
# Procedure, shortened: as §1
# 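Further: active if original authors judged signal statistically different from baseline.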
smiles,measurement,setting,value
CCCCCCCC=O,odorant receptor agonist call,UniProt A2ATE5,inactive
same,odorant receptor agonist call,UniProt A2AVB0,inactive
same,odorant receptor agonist call,UniProt A2AVB5,inactive
same,odorant receptor agonist call,UniProt B2RVX8,inactive
C=CCc1ccc(O)c(OC)c1,odorant receptor agonist call,UniProt A2ATE5,inactive
same,odorant receptor agonist call,UniProt A2AVB0,inactive
CC1COCc2cc3c(cc21)C(C)(C)C(C)C3(C)C (configuration not stated),odorant receptor agonist call,UniProt A2ATE5,inactive
same,odorant receptor agonist call,UniProt A2AVB0,inactive
O=C1CCCCC1,odorant receptor agonist call,UniProt A2AVB5,inactive
same,odorant receptor agonist call,UniProt B2RVX8,inactive
COC(=O)c1ccccc1O,odorant receptor agonist call,UniProt A2ATE5,inactive
same,odorant receptor agonist call,UniProt A2AVB0,inactive
COc1cc(C=O)ccc1O,odorant receptor agonist call,UniProt A2ATE5,inactive
same,odorant receptor agonist call,UniProt A2AVB0,inactive
CC(=O)c1ccccc1,odorant receptor agonist call,UniProt A2ASV2,inactive
same,odorant receptor agonist call,UniProt A2ATE5,inactive
same,odorant receptor agonist call,UniProt A2AVA9,active
same,odorant receptor agonist call,UniProt A2AVB0,inactive
same,odorant receptor agonist call,UniProt A2AVB5,active
same,odorant receptor agonist call,UniProt A2AVC3,active
same,odorant receptor agonist call,UniProt B2RVX8,inactive
CCCCCCC=O,odorant receptor agonist call,UniProt A2ATE5,inactive
same,odorant receptor agonist call,UniProt A2AVB0,inactive
same,odorant receptor agonist call,UniProt A2AVB5,inactive
same,odorant receptor agonist call,UniProt B2RVX8,inactive
CC(=O)C(C)=O,odorant receptor agonist call,UniProt A2ATE5,inactive
same,odorant receptor agonist call,UniProt A2AVB0,inactive
C=CCc1ccc(OC)c(OC)c1,odorant receptor agonist call,UniProt A2ATE5,inactive
same,odorant receptor agonist call,UniProt A2AVB0,inactive
c1cnccn1,odorant receptor agonist call,UniProt A2ATE5,inactive
same,odorant receptor agonist call,UniProt A2AVB0,inactive
CC(C)(O)CCCC1=CCC(C=O)CC1 (configuration not stated),odorant receptor agonist call,UniProt A2ATE5,inactive
same,odorant receptor agonist call,UniProt A2AVB0,inactive
same,odorant receptor agonist call,UniProt A2AVB5,inactive
same,odorant receptor agonist call,UniProt B2RVX8,inactive
CC(C)=CCCC(C)=CC=O,odorant receptor agonist call,UniProt A2ATE5,inactive
same,odorant receptor agonist call,UniProt A2AVB0,inactive
CCCCCCCCCC=O,odorant receptor agonist call,UniProt A2ATE5,inactive
same,odorant receptor agonist call,UniProt A2AVB0,inactive
same,odorant receptor agonist call,UniProt A2AVB5,inactive
same,odorant receptor agonist call,UniProt B2RVX8,inactive
CC12CCC(CC1)C(C)(C)O2,odorant receptor agonist call,UniProt A2ATE5,inactive
same,odorant receptor agonist call,UniProt A2AVB0,inactive
CC(=O)OC1CC2CCC1(C)C2(C)C (configuration not stated),odorant receptor agonist call,UniProt A2ATE5,inactive
same,odorant receptor agonist call,UniProt A2AVB0,inactive
C=CC(C)(O)CCC=C(C)C (configuration not stated),odorant receptor agonist call,UniProt A2ATE5,inactive
same,odorant receptor agonist call,UniProt A2AVB0,inactive
CCCCCCCCC=O,odorant receptor agonist call,UniProt A2ATE5,inactive
same,odorant receptor agonist call,UniProt A2AVB0,inactive
same,odorant receptor agonist call,UniProt A2AVB5,inactive
same,odorant receptor agonist call,UniProt B2RVX8,inactive
COc1ccccc1O,odorant receptor agonist call,UniProt A2ATE5,inactive
same,odorant receptor agonist call,UniProt A2AVB0,inactive
CC(C)CC(=O)O,odorant receptor agonist call,UniProt A2ATE5,inactive
same,odorant receptor agonist call,UniProt A2AVB0,inactive
CCCCCC(C)=O,odorant receptor agonist call,UniProt A2ATE5,inactive
same,odorant receptor agonist call,UniProt A2AVB0,inactive
same,odorant receptor agonist call,UniProt A2AVB5,inactive
same,odorant receptor agonist call,UniProt B2RVX8,inactive
CCCCCC(=O)O,odorant receptor agonist call,UniProt A2ATE5,inactive
same,odorant receptor agonist call,UniProt A2AVB0,inactive
same,odorant receptor agonist call,UniProt A2AVB5,inactive
same,odorant receptor agonist call,UniProt B2RVX8,inactive
CC(C)C=O,odorant receptor agonist call,UniProt A2ATE5,inactive
same,odorant receptor agonist call,UniProt A2AVB0,inactive
O=C1CCCCCCCCCCCCCCO1,odorant receptor agonist call,UniProt A2ATE5,inactive
same,odorant receptor agonist call,UniProt A2AVB0,inactive

# Five entries from above, with tabs.
smiles	measurement	setting	value
COC(=O)c1ccccc1O	odorant receptor agonist call	UniProt A2ATE5	inactive
CC(=O)c1ccccc1	odorant receptor agonist call	UniProt A2AVC3	active
CCCCCCC=O	odorant receptor agonist call	UniProt B2RVX8	inactive
CCCCCC(C)=O	odorant receptor agonist call	UniProt A2ATE5	inactive
O=C1CCCCCCCCCCCCCCO1	odorant receptor agonist call	UniProt A2ATE5	inactive
